No constants are given. Whether binding was seen depends on the method and setting. For some assays here: Binding seen in cells or lysates may run through a third protein. Some entries that bind do so weakly or less than the wild type. For some assays here: Tags and fused reporters may be left off the sequences shown. Blank lines part the entries; values can stand above or below the molecule they belong to.
What was measured:
[1] = target: GST-Snail (human) (UniProt O95863); assay: pull-down; GST or GST-Snail incubated with HIS-FBXO11 in the presence or absence of HIS-ERK3 overnight at 4 °C in GST binding buffer (50 mM Tris-HCl pH 7.5, 150 mM NaCl, 1 mM EDTA); captured on Glutathione HiCap Matrix beads; Western blot with the anti-FBXO11 antibody; both purified
[2] = target: endogenous Snail (human (endogenous in MIA PaCa-2 and PANC-1)) (UniProt O95863); assay: co-IP; endogenous proteins in MIA PaCa-2 and PANC-1 cell lysates; immunoprecipitation with the anti-Snail antibody, Western blot
[3] = target: HA-Snail (human) (UniProt O95863); assay: co-IP; HEK293T cells co-transfected with tagged proteins; Triton X-100 lysis buffer; lysates incubated with anti-Flag, anti-HA or anti-Myc antibody overnight at 4 °C, Protein A+G agarose beads, five washes, Western blot; Figure 6E with or without co-expressed Flag-ERK3
[4] = target: Flag-ERK3 KD (kinase dead ERK3, Asp171 to alanine) (UniProt Q16659); assay: as above
[5] = target: Flag-ERK3 CA (constitutive active ERK3, Ser189 to aspartic acid) (UniProt Q16659); assay: as above
[6] = target: T1, Myc-FBXO11 (pCMV3-FBXO11-Myc) (UniProt Q86XK2); assay: as above
T1 sequence: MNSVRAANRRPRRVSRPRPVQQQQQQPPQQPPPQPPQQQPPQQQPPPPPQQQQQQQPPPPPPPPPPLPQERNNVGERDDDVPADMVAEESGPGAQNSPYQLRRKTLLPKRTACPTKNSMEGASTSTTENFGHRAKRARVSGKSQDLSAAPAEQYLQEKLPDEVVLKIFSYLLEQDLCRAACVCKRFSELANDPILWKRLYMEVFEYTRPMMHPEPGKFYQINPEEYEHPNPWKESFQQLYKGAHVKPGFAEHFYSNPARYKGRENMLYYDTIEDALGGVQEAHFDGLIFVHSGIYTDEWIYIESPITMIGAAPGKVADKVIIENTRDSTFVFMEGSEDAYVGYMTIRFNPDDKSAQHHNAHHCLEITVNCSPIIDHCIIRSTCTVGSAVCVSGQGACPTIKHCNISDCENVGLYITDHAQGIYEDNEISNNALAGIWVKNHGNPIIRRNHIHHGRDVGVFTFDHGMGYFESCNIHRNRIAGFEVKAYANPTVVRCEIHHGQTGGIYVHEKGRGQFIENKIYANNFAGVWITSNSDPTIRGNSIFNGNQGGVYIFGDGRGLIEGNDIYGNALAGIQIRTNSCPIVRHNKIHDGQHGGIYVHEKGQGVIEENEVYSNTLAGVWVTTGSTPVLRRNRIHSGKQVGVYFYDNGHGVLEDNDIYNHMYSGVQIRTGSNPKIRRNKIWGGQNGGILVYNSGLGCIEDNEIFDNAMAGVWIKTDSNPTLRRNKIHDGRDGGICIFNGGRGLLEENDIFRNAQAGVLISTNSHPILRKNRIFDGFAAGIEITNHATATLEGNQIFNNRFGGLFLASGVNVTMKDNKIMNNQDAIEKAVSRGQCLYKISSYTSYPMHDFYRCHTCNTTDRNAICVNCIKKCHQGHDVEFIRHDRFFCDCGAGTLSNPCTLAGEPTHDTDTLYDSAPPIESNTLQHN

Chains of the proteins cited; added tags and fusions are not shown. Lines headed by an entry give the natural chain unless they say otherwise; changes in a name come on top. A line that says so, or that is headed by a name, gives the form on record, which may keep a tag or linker.
UniProt O95863: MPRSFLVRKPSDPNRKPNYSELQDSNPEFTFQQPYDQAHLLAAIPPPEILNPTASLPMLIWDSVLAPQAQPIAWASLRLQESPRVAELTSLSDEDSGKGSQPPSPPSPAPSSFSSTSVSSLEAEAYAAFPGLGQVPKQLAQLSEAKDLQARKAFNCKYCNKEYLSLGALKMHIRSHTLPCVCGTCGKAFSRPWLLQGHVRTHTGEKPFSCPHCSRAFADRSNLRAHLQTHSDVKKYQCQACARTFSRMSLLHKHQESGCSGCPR
UniProt Q16659: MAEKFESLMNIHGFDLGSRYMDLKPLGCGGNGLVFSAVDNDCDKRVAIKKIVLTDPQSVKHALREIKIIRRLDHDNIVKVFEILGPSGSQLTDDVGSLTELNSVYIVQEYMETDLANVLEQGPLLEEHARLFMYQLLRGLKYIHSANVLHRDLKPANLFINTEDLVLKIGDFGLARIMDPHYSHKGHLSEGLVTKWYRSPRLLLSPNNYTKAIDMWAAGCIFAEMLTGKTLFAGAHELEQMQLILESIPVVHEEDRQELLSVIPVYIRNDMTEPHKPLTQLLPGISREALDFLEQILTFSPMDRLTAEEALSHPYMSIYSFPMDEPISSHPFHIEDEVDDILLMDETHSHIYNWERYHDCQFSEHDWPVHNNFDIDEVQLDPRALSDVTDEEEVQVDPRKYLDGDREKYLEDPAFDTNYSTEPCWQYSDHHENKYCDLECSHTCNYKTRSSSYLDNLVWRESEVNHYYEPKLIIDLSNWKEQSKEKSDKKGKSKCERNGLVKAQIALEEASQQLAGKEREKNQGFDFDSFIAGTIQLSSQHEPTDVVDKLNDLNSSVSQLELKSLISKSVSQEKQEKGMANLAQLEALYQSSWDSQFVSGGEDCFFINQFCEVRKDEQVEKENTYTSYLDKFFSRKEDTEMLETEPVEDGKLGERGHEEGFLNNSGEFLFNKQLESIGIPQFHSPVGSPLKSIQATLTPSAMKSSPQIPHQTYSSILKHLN
Flag-ERK3 KD (kinase dead ERK3, Asp171 to alanine) (Q16659, form named): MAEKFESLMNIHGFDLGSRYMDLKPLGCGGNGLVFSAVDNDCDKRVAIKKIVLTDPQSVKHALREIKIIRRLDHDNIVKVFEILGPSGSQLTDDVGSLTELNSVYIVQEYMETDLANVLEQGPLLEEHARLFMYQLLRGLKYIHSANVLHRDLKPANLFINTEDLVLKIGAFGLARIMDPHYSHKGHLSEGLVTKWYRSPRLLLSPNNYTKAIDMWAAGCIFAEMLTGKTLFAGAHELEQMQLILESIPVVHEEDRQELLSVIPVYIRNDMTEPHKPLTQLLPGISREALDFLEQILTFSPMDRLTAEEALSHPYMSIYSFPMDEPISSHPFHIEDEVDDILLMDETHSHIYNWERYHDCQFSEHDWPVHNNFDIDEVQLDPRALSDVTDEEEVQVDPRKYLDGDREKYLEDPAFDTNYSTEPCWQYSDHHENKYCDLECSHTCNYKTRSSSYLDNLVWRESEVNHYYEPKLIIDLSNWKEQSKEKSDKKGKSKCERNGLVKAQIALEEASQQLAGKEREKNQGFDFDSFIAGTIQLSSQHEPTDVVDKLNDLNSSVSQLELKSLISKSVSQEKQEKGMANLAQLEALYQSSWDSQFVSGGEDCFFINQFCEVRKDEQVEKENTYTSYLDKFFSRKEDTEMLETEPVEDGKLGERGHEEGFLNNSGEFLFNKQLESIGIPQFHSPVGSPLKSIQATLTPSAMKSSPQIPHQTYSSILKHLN
Flag-ERK3 CA (constitutive active ERK3, Ser189 to aspartic acid) (Q16659, form named): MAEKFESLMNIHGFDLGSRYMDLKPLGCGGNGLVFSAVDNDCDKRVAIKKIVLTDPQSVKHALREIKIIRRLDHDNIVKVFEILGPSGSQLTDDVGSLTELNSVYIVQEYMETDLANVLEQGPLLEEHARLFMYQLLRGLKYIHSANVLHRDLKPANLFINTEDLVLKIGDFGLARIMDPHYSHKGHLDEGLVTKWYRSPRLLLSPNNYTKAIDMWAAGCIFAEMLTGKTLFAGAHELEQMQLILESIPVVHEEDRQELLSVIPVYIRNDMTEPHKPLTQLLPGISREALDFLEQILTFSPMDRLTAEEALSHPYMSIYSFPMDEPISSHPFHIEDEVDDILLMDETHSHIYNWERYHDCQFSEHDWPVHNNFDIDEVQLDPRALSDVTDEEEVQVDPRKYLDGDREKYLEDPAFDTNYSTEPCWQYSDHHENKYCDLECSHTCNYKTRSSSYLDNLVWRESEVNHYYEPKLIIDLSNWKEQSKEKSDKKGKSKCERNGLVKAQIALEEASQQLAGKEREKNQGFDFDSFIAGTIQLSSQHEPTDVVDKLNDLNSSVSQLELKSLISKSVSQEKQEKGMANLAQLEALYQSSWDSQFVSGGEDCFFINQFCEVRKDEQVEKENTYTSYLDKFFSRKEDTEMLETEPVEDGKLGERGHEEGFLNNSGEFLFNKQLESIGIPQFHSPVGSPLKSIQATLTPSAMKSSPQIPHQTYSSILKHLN

[7] = target: Flag-ERK3 (pCMV3-MAPK6-Flag) (UniProt Q16659); assay: as above

binding [1]: binds
Molecule: Recombinant HIS-ERK3 (from UniProt Q16659 1-721) (enzyme)

binding [2]: binds
Molecule: endogenous ERK3 (from UniProt Q16659 1-721) (enzyme)

binding [3]: binds
Molecule: Flag-ERK3 (pCMV3-MAPK6-Flag) (from UniProt Q16659 1-721) (enzyme)

binding [4]: binds
binding [5]: binds
binding [6]: binds
binding [7]: binds
Molecule: HA-Snail (from UniProt O95863 1-264)

binding [1]: binds
B1: Recombinant HIS-FBXO11 (protein, UniProt Q86XK2 1-927)
chain: MNSVRAANRRPRRVSRPRPVQQQQQQPPQQPPPQPPQQQPPQQQPPPPPQQQQQQQPPPPPPPPPPLPQERNNVGERDDDVPADMVAEESGPGAQNSPYQLRRKTLLPKRTACPTKNSMEGASTSTTENFGHRAKRARVSGKSQDLSAAPAEQYLQEKLPDEVVLKIFSYLLEQDLCRAACVCKRFSELANDPILWKRLYMEVFEYTRPMMHPEPGKFYQINPEEYEHPNPWKESFQQLYKGAHVKPGFAEHFYSNPARYKGRENMLYYDTIEDALGGVQEAHFDGLIFVHSGIYTDEWIYIESPITMIGAAPGKVADKVIIENTRDSTFVFMEGSEDAYVGYMTIRFNPDDKSAQHHNAHHCLEITVNCSPIIDHCIIRSTCTVGSAVCVSGQGACPTIKHCNISDCENVGLYITDHAQGIYEDNEISNNALAGIWVKNHGNPIIRRNHIHHGRDVGVFTFDHGMGYFESCNIHRNRIAGFEVKAYANPTVVRCEIHHGQTGGIYVHEKGRGQFIENKIYANNFAGVWITSNSDPTIRGNSIFNGNQGGVYIFGDGRGLIEGNDIYGNALAGIQIRTNSCPIVRHNKIHDGQHGGIYVHEKGQGVIEENEVYSNTLAGVWVTTGSTPVLRRNRIHSGKQVGVYFYDNGHGVLEDNDIYNHMYSGVQIRTGSNPKIRRNKIWGGQNGGILVYNSGLGCIEDNEIFDNAMAGVWIKTDSNPTLRRNKIHDGRDGGICIFNGGRGLLEENDIFRNAQAGVLISTNSHPILRKNRIFDGFAAGIEITNHATATLEGNQIFNNRFGGLFLASGVNVTMKDNKIMNNQDAIEKAVSRGQCLYKISSYTSYPMHDFYRCHTCNTTDRNAICVNCIKKCHQGHDVEFIRHDRFFCDCGAGTLSNPCTLAGEPTHDTDTLYDSAPPIESNTLQHN

— publication PMC10777929
